Reference: the supplement of paper PMC7666118
Some of the results follow.

By UniProt entry, the sequences of proteins in these tests, tags left out. Where a name states a change or a piece, a line headed by the entry shows the natural chain unless it says otherwise.
UniProt Q04656: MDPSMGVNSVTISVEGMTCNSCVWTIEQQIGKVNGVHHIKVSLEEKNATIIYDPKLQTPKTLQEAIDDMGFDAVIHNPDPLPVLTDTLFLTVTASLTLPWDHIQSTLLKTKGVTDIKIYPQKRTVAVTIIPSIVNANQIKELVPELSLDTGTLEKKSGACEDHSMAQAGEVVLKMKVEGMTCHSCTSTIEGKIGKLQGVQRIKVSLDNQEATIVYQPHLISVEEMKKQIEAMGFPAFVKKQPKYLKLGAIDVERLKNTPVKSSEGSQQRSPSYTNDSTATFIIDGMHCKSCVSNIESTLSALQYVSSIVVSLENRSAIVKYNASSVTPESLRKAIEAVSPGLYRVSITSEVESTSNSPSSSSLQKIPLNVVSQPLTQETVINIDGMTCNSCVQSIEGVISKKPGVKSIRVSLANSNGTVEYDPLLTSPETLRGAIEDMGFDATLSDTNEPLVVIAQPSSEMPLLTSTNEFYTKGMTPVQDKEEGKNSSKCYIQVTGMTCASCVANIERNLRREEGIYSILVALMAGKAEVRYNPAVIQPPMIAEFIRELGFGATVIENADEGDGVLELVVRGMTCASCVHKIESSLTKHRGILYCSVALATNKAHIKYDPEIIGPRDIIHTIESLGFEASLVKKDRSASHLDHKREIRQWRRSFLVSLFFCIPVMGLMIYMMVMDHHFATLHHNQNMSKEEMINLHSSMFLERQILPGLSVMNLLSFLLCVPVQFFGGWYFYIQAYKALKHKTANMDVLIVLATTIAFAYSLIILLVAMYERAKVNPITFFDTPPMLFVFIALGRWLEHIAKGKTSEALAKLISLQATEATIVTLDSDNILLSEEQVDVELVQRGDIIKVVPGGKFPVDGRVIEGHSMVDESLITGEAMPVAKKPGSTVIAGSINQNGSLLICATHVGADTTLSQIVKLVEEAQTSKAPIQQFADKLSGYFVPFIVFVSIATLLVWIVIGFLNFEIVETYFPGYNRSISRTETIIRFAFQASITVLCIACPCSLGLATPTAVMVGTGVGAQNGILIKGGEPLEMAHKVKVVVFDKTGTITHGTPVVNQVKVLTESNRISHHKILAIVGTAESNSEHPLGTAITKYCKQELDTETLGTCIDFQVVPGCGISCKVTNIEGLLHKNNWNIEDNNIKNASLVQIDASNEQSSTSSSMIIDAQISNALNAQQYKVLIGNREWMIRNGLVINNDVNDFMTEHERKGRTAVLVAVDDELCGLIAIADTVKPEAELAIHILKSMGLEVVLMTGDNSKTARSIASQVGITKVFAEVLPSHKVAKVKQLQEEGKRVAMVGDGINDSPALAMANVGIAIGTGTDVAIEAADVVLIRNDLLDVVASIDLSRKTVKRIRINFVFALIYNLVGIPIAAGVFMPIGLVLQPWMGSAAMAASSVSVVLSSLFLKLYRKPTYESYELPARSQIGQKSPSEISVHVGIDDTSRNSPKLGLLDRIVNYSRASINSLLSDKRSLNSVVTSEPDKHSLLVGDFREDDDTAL
UniProt P27449, whole entry: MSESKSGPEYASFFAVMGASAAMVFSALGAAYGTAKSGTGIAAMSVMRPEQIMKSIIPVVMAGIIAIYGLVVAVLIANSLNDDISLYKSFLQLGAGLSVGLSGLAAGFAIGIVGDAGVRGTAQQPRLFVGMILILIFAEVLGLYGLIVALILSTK
UniProt Q9BSB4: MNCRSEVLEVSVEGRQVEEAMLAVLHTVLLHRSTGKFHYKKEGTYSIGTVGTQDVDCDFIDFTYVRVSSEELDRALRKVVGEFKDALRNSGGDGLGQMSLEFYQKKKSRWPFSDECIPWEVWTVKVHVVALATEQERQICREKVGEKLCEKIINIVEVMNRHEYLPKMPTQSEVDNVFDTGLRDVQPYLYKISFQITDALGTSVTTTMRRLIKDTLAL
UniProt Q9UFG5: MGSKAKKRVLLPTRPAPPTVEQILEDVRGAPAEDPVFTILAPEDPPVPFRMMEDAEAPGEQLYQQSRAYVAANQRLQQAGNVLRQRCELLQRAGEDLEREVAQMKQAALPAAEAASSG
UniProt P07738: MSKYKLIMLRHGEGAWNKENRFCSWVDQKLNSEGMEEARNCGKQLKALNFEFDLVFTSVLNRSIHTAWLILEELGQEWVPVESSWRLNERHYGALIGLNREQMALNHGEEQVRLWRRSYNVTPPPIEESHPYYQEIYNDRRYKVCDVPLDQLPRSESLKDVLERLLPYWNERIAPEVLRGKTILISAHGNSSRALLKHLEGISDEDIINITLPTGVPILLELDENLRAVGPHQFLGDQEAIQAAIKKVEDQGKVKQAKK
UniProt Q8N999, whole entry: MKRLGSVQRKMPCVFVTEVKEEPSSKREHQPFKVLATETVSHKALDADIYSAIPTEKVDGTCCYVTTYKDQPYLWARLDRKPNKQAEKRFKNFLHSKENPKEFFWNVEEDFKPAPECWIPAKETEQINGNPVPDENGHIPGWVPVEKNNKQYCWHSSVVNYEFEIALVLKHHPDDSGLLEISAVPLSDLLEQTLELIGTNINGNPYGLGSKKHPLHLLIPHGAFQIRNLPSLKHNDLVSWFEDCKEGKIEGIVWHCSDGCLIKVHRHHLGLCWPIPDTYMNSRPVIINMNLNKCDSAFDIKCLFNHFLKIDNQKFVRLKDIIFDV
UniProt Q9HCU9: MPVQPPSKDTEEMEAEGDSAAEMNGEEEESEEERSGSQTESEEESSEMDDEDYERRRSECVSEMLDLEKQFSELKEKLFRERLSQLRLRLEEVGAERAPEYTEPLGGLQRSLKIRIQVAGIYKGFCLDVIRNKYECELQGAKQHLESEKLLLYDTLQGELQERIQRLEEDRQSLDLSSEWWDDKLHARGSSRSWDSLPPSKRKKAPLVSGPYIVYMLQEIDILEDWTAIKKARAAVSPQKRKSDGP
UniProt P78537: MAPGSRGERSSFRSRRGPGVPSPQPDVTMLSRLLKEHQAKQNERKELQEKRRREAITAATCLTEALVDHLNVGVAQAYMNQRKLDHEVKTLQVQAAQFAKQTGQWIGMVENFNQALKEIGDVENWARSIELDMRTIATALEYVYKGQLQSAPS
UniProt Q9H9C1: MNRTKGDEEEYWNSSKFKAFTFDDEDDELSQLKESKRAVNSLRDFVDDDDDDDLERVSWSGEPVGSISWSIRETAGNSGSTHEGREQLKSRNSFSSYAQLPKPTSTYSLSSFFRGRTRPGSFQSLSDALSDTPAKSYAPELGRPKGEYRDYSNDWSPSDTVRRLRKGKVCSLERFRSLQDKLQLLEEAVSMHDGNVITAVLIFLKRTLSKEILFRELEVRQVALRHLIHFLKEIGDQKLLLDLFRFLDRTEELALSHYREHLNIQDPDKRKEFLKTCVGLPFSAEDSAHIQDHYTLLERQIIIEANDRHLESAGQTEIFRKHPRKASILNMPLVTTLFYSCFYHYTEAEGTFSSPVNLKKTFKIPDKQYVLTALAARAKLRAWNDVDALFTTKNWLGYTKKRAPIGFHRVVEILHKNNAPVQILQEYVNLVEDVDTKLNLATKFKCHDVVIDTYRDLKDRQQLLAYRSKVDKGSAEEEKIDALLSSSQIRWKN
UniProt Q9NQS1: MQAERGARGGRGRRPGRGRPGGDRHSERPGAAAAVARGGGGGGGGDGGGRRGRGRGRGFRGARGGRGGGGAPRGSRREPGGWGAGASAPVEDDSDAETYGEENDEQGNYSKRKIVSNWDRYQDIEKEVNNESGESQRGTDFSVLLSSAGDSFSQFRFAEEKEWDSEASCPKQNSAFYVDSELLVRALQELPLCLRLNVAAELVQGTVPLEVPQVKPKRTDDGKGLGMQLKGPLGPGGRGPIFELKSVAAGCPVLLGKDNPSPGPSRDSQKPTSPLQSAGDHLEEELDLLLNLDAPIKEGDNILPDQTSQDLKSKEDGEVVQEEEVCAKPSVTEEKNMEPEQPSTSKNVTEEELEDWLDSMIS
UniProt Q9NYM9: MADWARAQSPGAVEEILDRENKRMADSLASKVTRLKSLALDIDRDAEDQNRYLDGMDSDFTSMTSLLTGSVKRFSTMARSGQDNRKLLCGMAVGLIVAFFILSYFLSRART
UniProt Q10588: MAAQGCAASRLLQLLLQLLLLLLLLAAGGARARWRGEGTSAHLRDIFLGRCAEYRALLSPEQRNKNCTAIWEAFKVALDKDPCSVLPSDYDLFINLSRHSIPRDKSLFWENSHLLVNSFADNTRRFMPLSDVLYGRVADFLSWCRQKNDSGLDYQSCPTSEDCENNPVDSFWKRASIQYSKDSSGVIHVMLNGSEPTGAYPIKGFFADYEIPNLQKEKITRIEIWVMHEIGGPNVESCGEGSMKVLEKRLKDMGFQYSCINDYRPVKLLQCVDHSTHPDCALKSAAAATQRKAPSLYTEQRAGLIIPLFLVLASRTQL
UniProt Q96C57: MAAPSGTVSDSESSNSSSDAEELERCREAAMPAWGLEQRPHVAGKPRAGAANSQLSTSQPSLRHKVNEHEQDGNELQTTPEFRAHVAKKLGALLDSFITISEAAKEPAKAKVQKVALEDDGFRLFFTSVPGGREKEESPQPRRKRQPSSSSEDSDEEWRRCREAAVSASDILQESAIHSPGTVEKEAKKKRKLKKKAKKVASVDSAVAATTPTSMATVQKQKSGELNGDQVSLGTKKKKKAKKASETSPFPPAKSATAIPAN
UniProt Q8NB49: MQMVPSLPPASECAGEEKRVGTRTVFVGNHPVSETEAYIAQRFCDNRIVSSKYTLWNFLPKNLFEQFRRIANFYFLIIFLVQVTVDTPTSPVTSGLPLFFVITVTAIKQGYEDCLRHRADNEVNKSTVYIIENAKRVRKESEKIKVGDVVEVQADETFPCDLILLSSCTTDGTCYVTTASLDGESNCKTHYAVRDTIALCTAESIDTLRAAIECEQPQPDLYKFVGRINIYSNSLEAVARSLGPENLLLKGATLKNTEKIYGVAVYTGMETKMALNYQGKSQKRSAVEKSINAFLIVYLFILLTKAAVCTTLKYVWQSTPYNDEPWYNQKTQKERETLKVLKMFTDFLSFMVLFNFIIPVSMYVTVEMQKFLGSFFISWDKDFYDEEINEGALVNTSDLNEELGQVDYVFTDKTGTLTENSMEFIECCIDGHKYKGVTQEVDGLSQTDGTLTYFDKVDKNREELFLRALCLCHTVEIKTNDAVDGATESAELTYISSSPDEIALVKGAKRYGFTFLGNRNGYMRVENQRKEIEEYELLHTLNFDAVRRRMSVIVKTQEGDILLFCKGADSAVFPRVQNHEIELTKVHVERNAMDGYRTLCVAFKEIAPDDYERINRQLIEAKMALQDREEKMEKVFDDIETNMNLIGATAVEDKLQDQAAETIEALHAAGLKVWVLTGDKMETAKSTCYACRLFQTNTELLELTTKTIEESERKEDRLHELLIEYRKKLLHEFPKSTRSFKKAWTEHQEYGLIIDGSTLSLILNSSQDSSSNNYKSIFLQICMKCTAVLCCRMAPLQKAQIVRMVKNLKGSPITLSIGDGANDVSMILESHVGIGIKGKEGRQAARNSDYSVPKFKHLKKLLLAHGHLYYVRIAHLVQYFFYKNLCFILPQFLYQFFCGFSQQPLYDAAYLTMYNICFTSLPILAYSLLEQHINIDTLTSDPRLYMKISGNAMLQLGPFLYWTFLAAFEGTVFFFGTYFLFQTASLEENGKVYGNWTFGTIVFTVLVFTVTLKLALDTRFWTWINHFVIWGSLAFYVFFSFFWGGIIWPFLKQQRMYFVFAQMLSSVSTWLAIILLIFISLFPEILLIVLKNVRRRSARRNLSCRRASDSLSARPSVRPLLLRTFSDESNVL
UniProt Q9H6D7: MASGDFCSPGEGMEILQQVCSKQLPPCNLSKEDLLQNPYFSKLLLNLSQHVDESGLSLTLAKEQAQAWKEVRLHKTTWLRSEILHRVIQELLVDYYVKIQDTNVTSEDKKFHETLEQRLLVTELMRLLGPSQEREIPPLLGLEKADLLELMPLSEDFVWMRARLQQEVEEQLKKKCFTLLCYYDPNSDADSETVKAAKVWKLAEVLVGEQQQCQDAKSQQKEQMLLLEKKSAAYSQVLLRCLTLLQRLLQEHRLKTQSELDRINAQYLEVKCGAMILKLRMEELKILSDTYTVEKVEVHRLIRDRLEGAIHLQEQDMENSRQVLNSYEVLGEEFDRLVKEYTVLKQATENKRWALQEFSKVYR
UniProt O95563: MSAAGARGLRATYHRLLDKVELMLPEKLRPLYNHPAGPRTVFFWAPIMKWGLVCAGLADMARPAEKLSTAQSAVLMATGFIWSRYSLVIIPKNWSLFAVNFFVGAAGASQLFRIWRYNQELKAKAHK
UniProt P18859: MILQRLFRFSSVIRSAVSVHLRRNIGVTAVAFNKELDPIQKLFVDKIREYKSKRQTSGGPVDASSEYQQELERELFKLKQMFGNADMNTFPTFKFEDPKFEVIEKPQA
UniProt P36542: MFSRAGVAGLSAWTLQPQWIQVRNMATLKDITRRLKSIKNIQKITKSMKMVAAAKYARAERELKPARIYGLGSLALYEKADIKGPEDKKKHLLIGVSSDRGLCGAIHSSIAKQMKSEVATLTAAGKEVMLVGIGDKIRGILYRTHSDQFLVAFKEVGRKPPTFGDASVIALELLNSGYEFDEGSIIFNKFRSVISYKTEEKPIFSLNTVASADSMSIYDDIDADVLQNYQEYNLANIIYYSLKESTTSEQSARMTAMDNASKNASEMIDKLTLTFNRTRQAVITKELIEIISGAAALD

Each target was assayed with COc1ccc(Cn2ccc3cc(C)c(C(=O)NO)cc32)cc1 (assay: dose-dependent thermal stabilisation call (2D-TPP, DLPTP, 10% FDR) (binary (1 = stabilised)); higher = stabilised by the compound). Conditions: system: HL-60 intact cells; concentration range 0.04-10 µM.
Experimental: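 2D thermal proteome profiling in intact HL-60 cells treated with BRD-3811 (0, 0.04, 0.29, 2, 10 uM) for 90 min at 37 C, then heated 3 min at one of 12 temperatures (42-63.9 C). Soluble protein was quantified by TMT10 MS. The value is the DLPTP call of the paper: dose-dependent thermal stabilisation over all temperatures at 10% FDR (F-test of a dose-response against a flat model); one experiment, one call per tested protein.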

Target | dose-dependent thermal stabilisation call
ATP7A (UniProt Q04656) | inactive: 0
C10ORF4 (UniProt Q70Z53) | inactive: 0
ATP6V0C (UniProt P27449) | inactive: 0
BUB3 (UniProt O43684) | inactive: 0
C12ORF44 (UniProt Q9BSB4) | inactive: 0
C19ORF38 (UniProt A8MVS5) | inactive: 0
C16ORF80 (UniProt Q9Y6A4) | inactive: 0
C19ORF25 (UniProt Q9UFG5) | inactive: 0
BPGM (UniProt P07738) | inactive: 0
C12ORF29 (UniProt Q8N999) | inactive: 0
BRMS1 (UniProt Q9HCU9) | inactive: 0
BLOC1S1 (UniProt P78537) | inactive: 0
C14ORF4 (UniProt Q9H1B7) | inactive: 0
BAT5 (UniProt O95870) | inactive: 0
C14ORF133 (UniProt Q9H9C1) | inactive: 0
AVEN (UniProt Q9NQS1) | inactive: 0
BCAP31 (UniProt P51572) | inactive: 0
BET1L (UniProt Q9NYM9) | inactive: 0

Not a retest: entries from further up.
Target | dose-dependent thermal stabilisation call
BLOC1S1 (UniProt P78537) | inactive: 0
C14ORF4 (UniProt Q9H1B7) | inactive: 0
BAT5 (UniProt O95870) | inactive: 0

Following part

Target | dose-dependent thermal stabilisation call
BST1 (UniProt Q10588) | inactive: 0
C14ORF159 (UniProt Q7Z3D6) | inactive: 0
C12ORF43 (UniProt Q96C57) | inactive: 0
ATP11C (UniProt Q8NB49) | inactive: 0
C17ORF71 (UniProt Q8ND04) | inactive: 0
BAK1 (UniProt Q16611) | inactive: 0
B4GALT1 (UniProt P15291) | inactive: 0
C14ORF94 (UniProt Q9H6D7) | inactive: 0
BRP44 (UniProt O95563) | inactive: 0
BCKDHB (UniProt P21953) | inactive: 0
ATP5J (UniProt P18859) | inactive: 0
BRD4 (UniProt O60885) | inactive: 0
C14ORF126 (UniProt Q96FN9) | inactive: 0
C14ORF101 (UniProt Q9NX78) | inactive: 0
UniProt B4DNJ8_HUMAN | inactive: 0
C14ORF1 (UniProt Q9UKR5) | inactive: 0
ATP5C1 (UniProt P36542) | inactive: 0
